According to patent US20240010724A1:
These are yes or no findings as the source states them, for the method shown. Binding calls can cover weak binding; strength is not graded here.

Molecular target: rhCDH19(44-141)::caCDH19(141-770) (rhesus macaque/dog chimera)
Test: flow cytometry, transfected 293T cells, 2 mM CaCl2

binding: binds
B1: anti-CDH19 antibody 13589 (clone 4A9) (antibody, human IgG1, lambda, V domains shown)
VH: QVQLQESGPGLVKPSETLSLTCTVSGGSISGYYWSWIRQPPGKGLEWFAYFSYSGSTNYNPSLKSRVTLSVDTSKNQFSLKLSSVTAADTAVYYCARNWAFHFDFWGQGTLVTVSS
VL: QSVLTQPPSVSGAPGQRVTISCTGSSSNIGTGYAVHWYQQFPGTAPKLLIYGNNNRPSGVPDRFSGSKSGTSASLAITGLQAEDEADYYCQSYDSRLSGWVFGGGTKLTVLG
